Results: patent US20230220458
No signal at the amounts used counts as a negative. For some of these results: For at least one entry, the source does not settle the construct or the ends of the probe.

Legend:
[1] = molecular target: HinP1I restriction endonuclease (UniProt Q5I6E6); test: enzyme reaction in vitro; details: purified recombinant protein, protein details: New England Biolabs
[2] = tested on: HhaI restriction endonuclease; test: enzyme reaction in vitro; details: no HhaI site; stays intact, used as control locus; purified recombinant protein

Sequence: AGTAGCGCCCACTGAGCGGTTTTTCAGTTGCTGCACCGTTCTTAGCGCCCAACGGAACGTTTCCCGTACGCGGAGTCCATAAGTT (double strand) [chr5 test locus, unmethylated plasmid insert]
- functional effect ([1]; CutSmart, 37 C 2 h, no amplification in 34/34 replicates after digestion): active

Sequence: AGACTAACTTTTCTCTTGTACAGAATCATCAGGCTAAATTTTTGGCATTATTTCAGTCCT (double strand) [control locus without HhaI/HinP1I site]
- functional effect ([1]; no recognition site, internal reference stays intact): not active
- functional effect [2]: not active

Sequence: AGTAGCGCCCACTGAGCGGTTTTTCAGTTGCTGCACCGTTCTTAGCGCCCAACGGAACGTTTCCCGTACGCGGAGTCCATAAGTT (double strand) [chr5 test locus, methylated HCT-15 genomic DNA]
- functional effect ([1]; 5mC at CpG (bisulfite sequencing), CutSmart, 37 C 2 h, methylated locus protected, amplified in 34/34 replicates): not active
